Reference: PubChem BioAssay AID1053208 (Peter MacCallum Cancer Centre, 2014)

Purpose: 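Find knock-downs that sensitise mouse osteosarcoma cells to doxorubicin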 (primary screen)
Cells: mouse osteosarcoma cells, early-passage culture from an engineered mouse model of fibroblastic bone tumour
Reagent: siRNA pool against mouse genes, 40 nM
Timing: about 120 h (48 h before drug, then 72 h with drug)
Conditions: doxorubicin 100 nM for 72 h, roughly 30-40% inhibitory dose
Read-out: 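Viability read as ATP luminescence after 72 h of 100 nM doxorubicin or none, duplicate wells averaged, scaled to non-targeting siRNA, then expressed as robust z-scores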
Reading the numbers: viability z-score with doxorubicin: higher = more viable cells under doxorubicin; viability z-score without drug: higher = more viable cells with knock-down alone
Active means: 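Called active if knock-down leaves viability unchanged without drug (z within -2 to 2) but lowers it with doxorubicin (z at or under -2)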
The deposit covers about 17,000 reagents; below is an unselected part. Over the whole deposit, 788 (4.7%) were called active. 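Calls rest on z-score classes alone; an extra cut-off of viability at most 70% of control was not applied to them.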 A number with no mark means an inactive call. Further read-outs or replicates are left out here. Reagent sequences are not shown.

gene	combined z-score class	viability z-score with doxorubicin	viability z-score without drug
Slc17a7	no change with or without drug	1.35	1.18
Prl7a2	no change with or without drug	0.22	-0.34
Polr3k	no change with or without drug	-0.45	0.34
Slc16a2	no change with or without drug	-1.69	-0.67
Thumpd3	no change with or without drug	1.57	-0.17
Trnt1	no change with or without drug	0.67	-0.17
AW551984	no change with or without drug	1.91	1.52
Stbd1	high cell count without drug only	0	2.36
Nusap1	no change with or without drug	0	0.17
Pias1	no change with or without drug	0.34	-0.34
Ccr10	no change with or without drug	-0.22	-0.67
Ropn1	no change with or without drug	-1.01	-0.84
Psmc4	low cell count with and without drug	-7.64	-8.94
Pum1	no change with or without drug	-0.11	0.84
Gatad2b	no change with or without drug	0.34	-0.17
Arl15	no change with or without drug	-0.67	0.51
Cryge	no change with or without drug	0.67	1.18
Fmo3	no change with or without drug	0.67	0.17
Pdk2	no change with or without drug	0.34	-0.51
Zfp105	no change with or without drug	-0.22	1.35

Targets above whose gene name starts with P or p (6):
gene	combined z-score class	viability z-score with doxorubicin	viability z-score without drug
Prl7a2	no change with or without drug	0.22	-0.34
Polr3k	no change with or without drug	-0.45	0.34
Pias1	no change with or without drug	0.34	-0.34
Psmc4	low cell count with and without drug	-7.64	-8.94
Pum1	no change with or without drug	-0.11	0.84
Pdk2	no change with or without drug	0.34	-0.51
